The record followed here is paper doi:10.1101/2025.04.28.651057.

The chains behind the UniProt entries cited, without tags or fusion partners. Where a name states a change or a piece, a line headed by the entry shows the natural chain unless it says otherwise.
UniProt Q80TN5, whole entry: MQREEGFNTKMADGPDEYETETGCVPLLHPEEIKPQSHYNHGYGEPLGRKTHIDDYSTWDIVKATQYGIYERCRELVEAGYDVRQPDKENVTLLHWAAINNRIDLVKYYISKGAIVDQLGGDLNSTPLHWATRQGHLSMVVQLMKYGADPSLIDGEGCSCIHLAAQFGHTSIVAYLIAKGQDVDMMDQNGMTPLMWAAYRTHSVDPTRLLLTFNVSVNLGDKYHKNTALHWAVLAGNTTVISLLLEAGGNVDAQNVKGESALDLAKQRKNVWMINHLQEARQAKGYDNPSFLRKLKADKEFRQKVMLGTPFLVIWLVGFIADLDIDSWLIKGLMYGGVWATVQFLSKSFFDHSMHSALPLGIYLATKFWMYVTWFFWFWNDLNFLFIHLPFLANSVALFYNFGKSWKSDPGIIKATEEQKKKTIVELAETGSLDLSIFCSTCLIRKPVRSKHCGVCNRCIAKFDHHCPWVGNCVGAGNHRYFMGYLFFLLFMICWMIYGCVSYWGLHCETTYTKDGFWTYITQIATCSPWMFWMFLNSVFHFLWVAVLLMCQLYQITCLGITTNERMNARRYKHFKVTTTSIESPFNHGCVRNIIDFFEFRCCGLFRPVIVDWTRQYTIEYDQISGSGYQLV
UniProt P59267, whole entry: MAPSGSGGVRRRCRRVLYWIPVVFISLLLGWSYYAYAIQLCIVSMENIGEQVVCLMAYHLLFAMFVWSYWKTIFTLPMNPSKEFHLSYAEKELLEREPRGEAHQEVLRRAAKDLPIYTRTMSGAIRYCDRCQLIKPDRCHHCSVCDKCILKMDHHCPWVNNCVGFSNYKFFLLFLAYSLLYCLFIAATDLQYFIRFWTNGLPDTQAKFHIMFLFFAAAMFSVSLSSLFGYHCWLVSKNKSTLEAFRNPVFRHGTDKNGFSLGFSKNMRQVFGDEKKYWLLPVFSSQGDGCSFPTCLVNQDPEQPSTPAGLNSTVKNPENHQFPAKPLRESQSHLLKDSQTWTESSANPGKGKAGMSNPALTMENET
UniProt Q7Z5G4, whole entry: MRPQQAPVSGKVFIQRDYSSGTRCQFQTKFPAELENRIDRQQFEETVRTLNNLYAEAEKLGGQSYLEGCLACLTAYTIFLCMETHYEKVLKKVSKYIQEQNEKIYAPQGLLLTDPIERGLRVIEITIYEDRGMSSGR

Experiment in all cases: co-IP
The target in assay [1] is T1, HA-Zdhhc6 (mouse) (mouse) (UniProt Q9CPV7).
T1 sequence: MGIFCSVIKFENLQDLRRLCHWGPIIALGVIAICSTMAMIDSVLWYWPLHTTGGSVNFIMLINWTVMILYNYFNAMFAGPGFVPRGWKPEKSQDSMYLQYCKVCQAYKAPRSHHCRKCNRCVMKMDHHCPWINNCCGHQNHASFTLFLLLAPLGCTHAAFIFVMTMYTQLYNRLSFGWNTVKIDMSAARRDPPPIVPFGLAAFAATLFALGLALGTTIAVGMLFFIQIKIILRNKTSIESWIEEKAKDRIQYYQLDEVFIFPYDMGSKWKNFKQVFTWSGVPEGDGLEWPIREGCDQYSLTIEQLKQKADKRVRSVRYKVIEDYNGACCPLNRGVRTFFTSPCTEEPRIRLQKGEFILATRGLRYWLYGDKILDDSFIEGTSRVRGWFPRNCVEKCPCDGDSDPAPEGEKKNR

In assay [2] the target is T2, HA-Zdhhc18 (mouse) (mouse) (UniProt Q5Y5T2).
T2 sequence: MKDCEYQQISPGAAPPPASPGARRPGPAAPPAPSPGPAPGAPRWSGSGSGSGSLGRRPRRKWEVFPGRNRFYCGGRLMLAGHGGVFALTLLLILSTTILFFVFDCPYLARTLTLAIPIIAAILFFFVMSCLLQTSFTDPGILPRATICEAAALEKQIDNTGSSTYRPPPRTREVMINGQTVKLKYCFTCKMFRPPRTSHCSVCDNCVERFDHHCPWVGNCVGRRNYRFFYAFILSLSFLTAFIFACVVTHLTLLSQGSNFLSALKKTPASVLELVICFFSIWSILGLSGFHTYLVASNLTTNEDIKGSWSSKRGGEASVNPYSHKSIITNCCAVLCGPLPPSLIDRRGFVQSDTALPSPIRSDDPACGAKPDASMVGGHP

Assay [3] concerns the target HA-Zdhhc5^RNYA (Arg147Ala) (mouse) (UniProt Q8VDZ4).
For the next assay, the target named is T3, Zdhhc19^RNYR (mouse) (UniProt Q810M5).
T3 sequence: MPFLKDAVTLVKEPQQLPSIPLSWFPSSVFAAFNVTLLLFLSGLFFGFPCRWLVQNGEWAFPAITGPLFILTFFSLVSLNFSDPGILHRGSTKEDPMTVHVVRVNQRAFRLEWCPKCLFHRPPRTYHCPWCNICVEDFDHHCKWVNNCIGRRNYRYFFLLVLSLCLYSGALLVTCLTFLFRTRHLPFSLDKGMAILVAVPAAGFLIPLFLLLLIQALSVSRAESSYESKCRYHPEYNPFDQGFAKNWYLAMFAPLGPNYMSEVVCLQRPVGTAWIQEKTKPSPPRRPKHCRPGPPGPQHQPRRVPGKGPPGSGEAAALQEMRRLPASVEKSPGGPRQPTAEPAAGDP

The target in assay [4] is T4, HA-Zdhhc3 (mouse) (mouse) (UniProt Q8R173).
T4 sequence: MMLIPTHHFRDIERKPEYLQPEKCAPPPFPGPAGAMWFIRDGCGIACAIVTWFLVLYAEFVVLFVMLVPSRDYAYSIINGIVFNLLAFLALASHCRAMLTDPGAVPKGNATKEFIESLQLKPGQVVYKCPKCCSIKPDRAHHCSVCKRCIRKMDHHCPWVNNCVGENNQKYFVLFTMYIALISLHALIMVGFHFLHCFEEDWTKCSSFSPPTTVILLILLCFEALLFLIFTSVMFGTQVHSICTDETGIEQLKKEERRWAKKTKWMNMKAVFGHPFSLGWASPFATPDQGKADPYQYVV

The target in assay [5] is HA-Zdhhc17 (mouse) (mouse) (UniProt Q80TN5).
Assay [6] concerns the target Zdhhc5^ANYA (Arg144Ala, Arg147Ala) (mouse) (UniProt Q8VDZ4).
Assay [7] concerns the target HA-Zdhhc2 (mouse) (mouse) (UniProt P59267).

No constants are given. Whether binding was seen depends on the method and setting. In cells and extracts the contact can be indirect. Some binding calls cover weakened binding; strength is not graded here. For some assays here: Where a sequence is shown, tags or fusion partners need not be part of it.

As for “endogenous human GOLGA7 (from UniProt Q7Z5G4 1-137)”, the binding entry in assay [1] is given as “no binding”; in assay [2], “binds”; in assay [3] it was “no binding”; with Zdhhc19^RNYR (mouse) it was “no binding”; in assay [4] it was “no binding”; in assay [5] it was “no binding”. The binding result in assay [6] and in assay [7] was “no binding” throughout.
